Laboratory results: PubChem BioAssay AID504467 (National Center for Advancing Translational Sciences (NCATS), 2011)
Screen size: about 330,000 compounds; about 7,700 (2.3%) were called active. This list was built around the results that the source calls inconclusive (neither active nor inactive); the mix of calls is not that of the screen. The call rests on the fitted dose curve; in most records, active means well fitted inhibition curve with a large enough effect; inconclusive means small, poorly fitted or top-dose-only effect, or effect the other way; inactive means flat fitted curve, though single readings scatter. Potencies of inconclusive entries are doubtful fits and often do not repeat.

Experiment: qHTS screen for small molecules that inhibit ELG1-dependent DNA repair in human embryonic kidney (HEK293T) cells expressing luciferase-tagged ELG1; further: nearly all actives have a fitted effect of over 55% in size
Details: HEK293T ELG1-luciferase reporter, luminescence, 16 h, DNA damage induced by 5-fluorouridine; activity change, negative = inhibition: at 46.1 µM (top of the series)
How it was run: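 In this reporter screen, reduction of luminescence relative to DMSO vehicle indicated activity. Compounds and 5-fluorouridine were added together to 2,000 cells per well, incubated for 16 hr at 37 °C, then developed with ONE-Glo.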
On the % scale 0 is the no-effect control and ±100 the full control effect; potency means the concentration at half of the fitted maximal effect.

SMILES | Potency | activity change, negative = inhibition
Cn1c(O)c(/C=C2\N=c3ccccc3=C2CCNC(=S)NC2CC2)c(=O)n(C)c1=O | inconclusive: 18.3 µM [activator, single point] | 
CC[n+]1c(/C=C/C=C/c2ccc(N(C)C)cc2)sc2ccccc21 | inconclusive: 4.61 µM [inhibitor, partial curve, poor fit] | 
COC(=O)C1=C(c2cccc(C#N)c2)C[C@@H]2CC[C@H]1N2C(=O)NCC1CC1 |  | inactive: 11.7%
C#CC1(O)CCC2C3CCC4=C/C(=N/OCC(=O)NCC(=O)NC(C(=O)O)C(C)C)CC[C@]4(C)C3CC[C@@]21C (stereo not given in full) | inconclusive: 13 µM [inhibitor, partial curve] | 
Cc1cc(O)c2c3c(c(=O)oc2c1)CCC(C)C3 (stereo not given) | inconclusive: 8.2 µM [inhibitor, partial curve, poor fit] | 
CN(C)c1ccc(/C=C2/C(=O)NC(=O)N(Cc3ccco3)C2=O)cc1 |  | inactive: 13.3%
N[C@@H](Cc1cc(Br)c(O)c(Br)c1)C(=O)O |  | inactive: 21.6%
Fc1ccc(CCNCc2ccc(Cl)c(Cl)c2)cc1 |  | inactive: 8.28%
c1cc(CNCCc2ccc3c(c2)OCO3)ccn1 | inconclusive: 31.6 µM [activator, single point] | 
CCCCn1c(O)c(C(C)=NCc2ccc3c(c2)OCO3)c(=O)[nH]c1=O | inconclusive: 18.3 µM [inhibitor, single point] | 
CC(c1nc2ccccc2c(=O)[nH]1)N(C)CCOc1ccc(Cl)cc1 (stereo not given) | inconclusive: 25.9 µM [inhibitor, single point] | 
O=C1NC(=O)C(=Cc2ccc3ccccc3c2)C(=O)N1 |  | inactive: 5.49%
COc1ccccc1CNCCc1ccc(F)cc1 |  | inactive: -6.6%
CN1CCN(c2ccc([N+](=O)[O-])c(NCC3CCCO3)c2)CC1 (stereo not given) |  | inactive: 6.27%
CCCCOP(=O)(c1ccc(N(C)C)cc1)C(Nc1ccccc1)c1ccccc1 (stereo not given) | inconclusive: 25.9 µM [inhibitor, single point] | 
CNC(C)Cc1ccccc1Sc1ccc(O)cc1 (stereo not given) | inconclusive: 29.1 µM [inhibitor, single point] | 
CCOC(=O)c1c(C)n(Cc2ccc(F)cc2)c2ccc(O)cc12 |  | inactive: 1.22%
COc1ccc(-n2c(/C=C/c3ccc4c(c3)OCO4)nc3ccccc3c2=O)cc1 | active: 23.1 µM | 
O=C(c1cc2cc(Br)ccc2[nH]1)N1CCC2(CC1)OCCO2 | inconclusive: 20.6 µM [activator, single point] | 
CCOC(=O)c1c(C=O)c2ccccc2n1Cc1ccccc1 |  | inactive: -6.75%
CCN(CC)c1ccc(N=Cc2c(O)n(-c3cc(OC)ccc3OC)c(=O)[nH]c2=O)cc1 | inconclusive: 20.6 µM [inhibitor, partial curve, poor fit] | 
Cc1cc(C(=O)N=Nc2c(O)n(C)c3ccccc23)c(C)o1 | inconclusive: 4.11 µM [activator, full curve] | 
O=C1NCCOC(=O)[C@@H](Cc2ccc(F)cc2)CC/C=C/C[C@H]1CC(=O)N(CCO)Cc1ccccc1 | inconclusive: 18.3 µM [inhibitor, partial curve] | 
C[C@H](CO)N1C[C@H](C)[C@@H](CN(C)Cc2ccccc2)Oc2c(NC(=O)c3ccncc3)cccc2C1=O | inconclusive: 20.6 µM [inhibitor, partial curve, poor fit] | 

Looked up by compound from the list above:
SMILES | Potency | activity change, negative = inhibition
CCN(CC)c1ccc(N=Cc2c(O)n(-c3cc(OC)ccc3OC)c(=O)[nH]c2=O)cc1 | inconclusive: 20.6 µM [inhibitor, partial curve, poor fit] | 
c1cc(CNCCc2ccc3c(c2)OCO3)ccn1 | inconclusive: 31.6 µM [activator, single point] | 
COc1ccccc1CNCCc1ccc(F)cc1 |  | inactive: -6.6%

Next structures

SMILES | Potency | activity change, negative = inhibition
Cc1c(N=Cc2c(O)n(Cc3ccco3)c(=O)[nH]c2=O)c(=O)n(-c2ccccc2)n1C |  | inactive: 5.95%
COc1ccc(-c2coc3cc(OC(=O)N4CCOCC4)ccc3c2=O)cc1 | inconclusive: 29.1 µM [inhibitor, single point] | 
O=C1/C(=C/c2ccccc2)C[C@@]2(O)[C@H]3Cc4ccc(O)c5c4[C@@]2(CCN3CC2CC2)C1O5 (stereo not given in full) | active: 18.3 µM | 
Cc1oc(-c2ccc(F)cc2F)nc1CN1C[C@@H]2C[C@@H](C1)c1cccc(=O)n1C2 |  | inactive: 7%
Cc1ccc(NC(=O)OC(C)CNC(=O)Oc2cccc(C)c2)cc1 (stereo not given) | inconclusive: 29.1 µM [activator, single point] | 
CC(C)NC(C)C(=O)c1ccc2ccccc2c1 (stereo not given) |  | inactive: 0%
CN1C2CCC1C(C(=O)O)C(OC(=O)c1ccccc1)C2 (stereo not given) | inconclusive: 20.6 µM [activator, single point] | 
COc1ccccc1NC(=O)c1cn(CCC#N)nc1-c1cccc(Cl)c1 | inconclusive: 23.1 µM [inhibitor, single point] | 
COC(=O)C1=C(c2ccc(-c3ccccc3)c(F)c2)C[C@@H]2CC[C@H]1N2C(=O)N1CCc2cc(OC)c(OC)cc2C1 | inconclusive: 10.3 µM [inhibitor, partial curve, poor fit] | 
COc1ccc(CCN(C)Cc2ccc(F)cc2F)cc1OC |  | inactive: 6.32%
O=c1c2ccccc2nc(/C=C/c2ccccn2)n1-c1ccccc1 |  | inactive: -5.05%
COC(=O)[C@]12OC[C@]34C([C@@H](O)[C@@H]1O)[C@]1(C)CC(=O)C(O)=C(C)[C@@H]1C[C@H]3OC(=O)[C@H](O)[C@@H]24 (stereo not given in full) | inconclusive: 4.61 µM [inhibitor, full curve, poor fit] | 
CN1C(=O)NC(=O)/C(=C/c2ccc([N+](=O)[O-])o2)C1=O |  | inactive: 17.5%
CCn1nc(C)c(CN2CCCC(C(=O)c3cccc(OC(C)C)c3)C2)c1C (stereo not given) | inconclusive: 2.59 µM [inhibitor, full curve] | 
CCOc1ccc(Cn2c(=O)oc3ccc(C)cc32)cc1OC | inconclusive: 20.6 µM [inhibitor, partial curve, poor fit] | 
CC1CCN(CC(=O)c2ccccc2Cl)CC1 | inconclusive: 16.4 µM [activator, partial curve] | 
COC(=O)C1=C(c2ccc(OC)c(OC)c2)C[C@@H]2CC[C@H]1N2C(=O)NCc1cc(C)oc1C(F)(F)F |  | inactive: -9.02%
COC(=O)c1ccc(-c2nc(-c3ccc(Br)o3)no2)cc1 | inconclusive: 2.59 µM [activator, full curve] | 
Cc1cc(NC(=O)c2noc3c2CCCCC3)no1 | inconclusive: 8.2 µM [activator, single point] | 
CC(C)(C)c1o[nH]c(=O)c1CC(N)C(=O)O (stereo not given) | inconclusive: 31.6 µM [activator, single point] | 
COc1ccc(-n2c(O)c(/C=C3\C=Nc4ccc(Br)cc43)c(=O)[nH]c2=O)c(OC)c1 | inconclusive: 20.6 µM [activator, single point] | 
O=C(Cc1ccccc1)OCCN1CCOCC1 |  | inactive: -0.336%
COc1cc(O)cc2c1cc([N+](=O)[O-])c1c(C(=O)O)cc3c(c12)OCO3 |  | inactive: 0.966%
CN1CCc2nc(SCC(=O)OC(C)(C)C)c(C#N)cc2C1 | inconclusive: 20.6 µM [activator, partial curve] | 

SMILES | Potency | activity change, negative = inhibition
CC(C)N1C(=O)/C(=C/C=C/c2ccco2)C(=O)N(Cc2ccco2)C1=O | inconclusive: 29.1 µM [inhibitor, single point] | 
Cc1c(N=Nc2c(O)[nH]c(=S)[nH]c2=O)c(=O)n(-c2ccccc2)n1C |  | inactive: 8.6%
Cc1cc(C(=O)CS(=O)(=O)c2ccccc2)cc(C)c1OC(=O)N(C)C | inconclusive: 8.2 µM [activator, partial curve] | 
Cc1cc(OCC(=O)NCC2CCC(C(=O)O)CC2)c2c3c(c(=O)oc2c1)CCC3 (stereo not given) | inconclusive: 0.651 µM [activator, single point] | 
C/C(=N\N1CCN(C)CC1)c1c(O)n(Cc2ccccc2)c(=O)[nH]c1=O | inconclusive: 20.6 µM [activator, partial curve, poor fit] | 
CC(C)n1c(=O)c(C=Nc2ccc(Cl)cc2)c(O)n(Cc2ccco2)c1=O | inconclusive: 20.6 µM [inhibitor, partial curve] | 
CC(C)c1ccc(-n2c(O)c(/C=N/NC(=O)c3ccccc3O)c(=O)[nH]c2=S)cc1 |  | inactive: 0%
Cn1cc(C(=O)OCC(=O)NC2(C#N)CCCC2)c2ccccc21 | inconclusive: 32.6 µM [activator, partial curve, poor fit] | 
Cc1[nH]c2ccccc2c1C1=CCNCC1 | inconclusive: 29.1 µM [inhibitor, single point] | 
CC(=O)N1CCN(CC(=O)Nc2ccc(C#N)c(Cl)c2)CC1 |  | inactive: -2.5%
COc1ccccc1N1CCN(Cc2ccc(Cl)cc2Cl)CC1 |  | inactive: -12.6%
c1cc2c(cc1C1OCC3C(c4ccc5c(c4)OCO5)OCC13)OCO2 (stereo not given) |  | inactive: -8.1%
CCc1cc(=O)oc2cc(OCC(=O)N3C[C@H]4C[C@@H](C3)c3cccc(=O)n3C4)c(Cl)cc12 | inconclusive: 1.16 µM [activator, single point] | 
CCN1CC=C(c2c[nH]c3ccccc23)CC1 |  | inactive: -9.16%
COc1ccc(OC)c(N2C(=O)/C(=C/c3ccco3)C(=O)NC2=S)c1 |  | inactive: -9.28%
NC1=C(Br)C(=O)c2ccccc2C1=O | active: 23.1 µM | 
CC(C)C(=O)c1cn(Cc2ccc(C#N)cc2)c2ccccc12 | active: 18.4 µM | 
CCCCCCn1c(N)c(C(=O)NCCN2CCOCC2)c2nc3ccccc3nc21 | inconclusive: 13 µM [inhibitor, partial curve] | 
Cc1ccc(OCCOc2cccc(C=C3C(=O)NC(=O)NC3=O)c2)c(C)c1 | inconclusive: 35.5 µM [inhibitor, single point] | 
CC(C)(C)N1C(=O)NC(=O)/C(=C\c2ccc3c(c2)CCN3CCCCl)C1=O |  | inactive: 4.77%
CC(=O)c1c(O)n(-c2cccc(Cl)c2)c(=O)[nH]c1=O (tested in a mixture with another compound) | inconclusive: 6.51 µM [inhibitor, single point] | 
Cc1cccc(N2C(=O)NC(=O)/C(=C\c3cnc(-c4ccccc4)nc3)C2=O)c1 |  | inactive: 26.1%
